Assay results reported in publication PMC6539110, “A Novel G-Quadruplex Binding Protein in Yeast—Slx9”.
The comparison behind a weaker result is the experiment's own reference, which may not be listed here. Protein sequences can lack the tags named with them.

Molecular target: T1, Slx9 (6xHis-Slx9) (Saccharomyces cerevisiae) (UniProt P53251)
T1 sequence (looked up): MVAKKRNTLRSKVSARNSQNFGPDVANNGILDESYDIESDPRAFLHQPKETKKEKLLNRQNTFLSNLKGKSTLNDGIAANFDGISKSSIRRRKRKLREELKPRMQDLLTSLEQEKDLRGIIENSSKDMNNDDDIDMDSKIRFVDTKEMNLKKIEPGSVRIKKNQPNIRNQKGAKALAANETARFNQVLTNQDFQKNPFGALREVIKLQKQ
Experiment: MST
Conditions: Kd not in material; MST: 25 nM Cy5-DNA, NaCl (buffer partly given), 0.5% BSA, 0.05% Tween-20, 24 C; recombinant protein; residues 1-210; protein details: 6xHis (pET28a EcoRI/NotI, about 30 kDa); label: 5' 32P (filter binding), 5' Cy5 (MST); single-stranded …

## AAAAAAAAAAGCGTACGGTGCGTAATAACGCAAGCTATCGCG [G4mut (mut-G4IX)]
  binding result: binds more weakly
